A short description of the assay: qHTS Assay to Find Inhibitors of Chronic Active B-Cell Receptor Signaling. Conditions: ABC-DLBCL IkBa-CBG/CBR reporter, luminescence ratio (green luciferase fused to IkBa over red control in TMD8 lymphoma cells), 4 h. An outline of the steps: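 TMD8 ABC-DLBCL cells carrying doxycycline-inducible green luciferase fused to IkappaBalpha plus unfused red luciferase were exposed to compounds (up to 46 uM) for 4 hrs at 37C. Activity came from the overlap-corrected green/red luminescence ratio.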
(In general: Quantitative high-throughput screening tests each substance at several concentrations.)

Where [1] appears, read: measured here: CBR red luminescence, cell number.
[2] abbreviates: measured here: IkBa-CBG green luminescence.

Molecules are shown by their SMILES. The list shows a part of the results. Shown are side measurements of this screen, not its main read-out; they come without a call. Compounds called inactive in the main read-out are mostly missing here. Words in brackets tell the shape of the fitted curve; partial curves, single points and poor fits give uncertain potencies.

A word on the AC50: it is the concentration at which the activity in the assay is half-maximal.

With `CCOP(=O)(OCC)C(NC(=O)Nc1cccc(Cl)c1)C(N)=O` (stereo unspecified), under setting [1], the AC50 was 0.146 µM [rising, full curve, poor fit].
Still for that read-out and setting: in the case of `COc1cc(/C=C2\C(=O)ON=C2c2ccccc2)cc(Cl)c1O` it was 12.6 µM [rising, partial curve, poor fit].
Turning to `N#CSCC(=O)N1c2ccccc2CCc2ccccc21`, the AC50 reads like this: under setting [1], 29.1 µM [rising, single point]; under setting [2], 29.1 µM [falling, single point].
On to `Cc1onc(-c2c(Cl)cccc2Cl)c1/C(N)=N/OC(=O)N(C)C`, for which, under setting [1], the AC50 was 35.5 µM [rising, partial curve, poor fit].
On the same count and under the same terms, for `O=P(c1ccccc1)(c1ccccc1)C(c1ccccn1)P(=O)(c1ccccc1)c1ccccc1` the value was 5.62 µM [rising, single point]; for `O=[N+]([O-])c1ccc(N2CCCCCC2)c2nonc12`, 7.08 µM [rising, full curve, poor fit]; for `COc1cc(Cl)c(C)cc1NC(=O)CCCn1c(=O)oc2ccccc21`, 16.4 µM [falling, partial curve, poor fit].
On to `COC(=O)[C@@H]1[C@@H](C(=O)OC)C2(c3ccccc3-c3ccccc32)N(c2ccc(Cl)cc2)N1C#N`, for which the AC50 under setting [1] was 20.6 µM [falling, single point].
In the case of `CC(C)CCOP(=O)(c1ccc(N(C)C)cc1)C(O)c1ccc(C(C)C)cc1` (stereo unspecified), the AC50 under setting [1] is 10 µM [falling, single point].
Still for that read-out and setting: for `Cc1cc(C(=O)Nc2ccccc2)nn1C(C)(C)C` the value was 17.8 µM [falling, single point].
Still for that read-out and setting: for `O=C(NC(=S)N1C[C@H]2C[C@H](C1)c1cccc(=O)n1C2)c1ccc(Cl)cc1Cl` the value was 4.47 µM [rising, full curve, poor fit]; for `CC(C)=CCN1CC[C@@]2(C)c3cc(O)ccc3CC1C2C` (stereo partly specified), 8.2 µM [rising, single point]; for `CC1(C)CC(C)(O)P(=O)(c2ccccc2)O1` (stereo unspecified), 4.61 µM [rising, partial curve, poor fit].
The same measure, in the same setting: in the case of `COC(=O)C1=C(c2ccccc2OCc2ccccc2)C[C@@H]2CC[C@H]1N2C(=O)NCc1ccc(N(C)C)cc1` it was 20.6 µM [falling, single point]; in that of `CN1CCN(c2c(N)c(=O)oc3ccccc23)CC1`, 29.1 µM [falling, single point].
Turning to `COc1ccccc1OCCCn1cc(C(=O)c2ccco2)c2ccccc21`, the concentration at half-maximal activity (AC50) under setting [1] was 25.9 µM [falling, single point].
Still for that read-out and setting: for `O=C(Nc1ccc(N2CCN(C(=O)c3cccs3)CC2)cc1)c1ccccc1Cl` the value was 12.6 µM [falling, partial curve].
Still for that read-out and setting: for `COC(=O)C1=C(c2ccc(C(C)=O)cc2)C[C@@H]2CC[C@H]1N2C(=O)N1CCC(C)CC1` the value was 20.6 µM [falling, single point]; for `COc1cc(OC)c(OC)cc1CNC(C)C(O)c1ccccc1` (stereo unspecified), 20 µM [rising, single point].
Same read-out and setting: in the case of `C=CCNC(=O)c1c(N)n(Cc2ccco2)c2nc3ccccc3nc12` it was 8.91 µM [falling, partial curve, poor fit]; in that of `CN(C)[C@@H]1C(=O)C(C(N)=O)=C(O)[C@@]2(O)C(=O)C3=C(O)c4c(O)cccc4[C@@](C)(O)[C@H]3[C@H](O)[C@@H]12`, 0.82 µM [falling, full curve, poor fit].
Turning to `CN(C(=O)CNC(=O)OCc1ccccc1)c1ccc(Br)cc1C(=O)c1ccccc1Cl`, the AC50 under setting [2] is 29.1 µM [falling, single point].
With `CC1=Nc2cc(C(=O)NCCCOC(C)C)ccc2Sc2ccc(C)cc21`, the concentration at half-maximal activity (AC50) under setting [1] is 3.55 µM [rising, partial curve, poor fit].
Still for that read-out and setting: in the case of `CCOc1cc2c(cc1OCC)-n1cccc1C(c1ccc(C(C)C)cc1)NC2` (stereo unspecified) it was 35.5 µM [falling, single point].
As to `CN1CCN(c2ccc(N)cc2)CC1`, under setting [1], the AC50 was 0.00651 µM [rising, full curve, poor fit].
Same read-out and setting: for `CN(c1ccccc1)c1ccc([N+](=O)[O-])c2nonc12` the value was 17.8 µM [rising, partial curve, poor fit]; for `C/C(=N\N1CCCCCC1)c1c(O)n(C2CCCCC2)c(=O)[nH]c1=O`, 7.94 µM [rising, partial curve, poor fit].
Still for that read-out and setting: in the case of `COCCCn1c(-c2ccc(OC)cc2)cc(C(=O)NC2CCCCCCC2)c1C` it was 0.231 µM [falling, partial curve, poor fit]; in that of `CC(C)OP(=O)(OC(C)C)C(Nc1ccccc1)c1cccc2c1OCO2` (stereo unspecified), 29.1 µM [falling, single point].
On the same count and under the same terms, for `CCCCn1c(O)c(C(CC)=Nc2cccc(C(=O)O)c2)c(=O)[nH]c1=O` the value was 9.2 µM [rising, partial curve, poor fit].
`O=C(CNC(=O)c1cccc(Cl)c1)Nc1ccc(Br)cc1C(=O)c1ccccc1`: under setting [1], the AC50 is 29.1 µM [falling, single point].
Regarding `C/C(CC(c1ccccc1)c1c(O)c2ccccc2oc1=O)=N\NC(N)=S` (stereo unspecified), under setting [2], the concentration at half-maximal activity (AC50) is 23.1 µM [falling, single point].
`COc1ccc(CNCCc2ccc(Cl)cc2Cl)cc1`: the AC50 under setting [1] is 0.2 µM [falling, partial curve, poor fit].
On the same count and under the same terms, for `CC(=O)Nc1cccc(OCC(=O)/C=C2\N(C)c3ccccc3C2(C)C)c1` the value was 25.1 µM [falling, single point]; for `CC/C(=N\NC(=O)Nc1ccccc1)c1c(O)n(Cc2ccccc2)c(=O)[nH]c1=O`, 12.6 µM [falling, single point].
The same measure, in the same setting: in the case of `CCOP(=O)(OCC)/C(C#N)=C/c1ccoc1` it was 22.4 µM [rising, single point].
Take `O=C1NC(=O)N(Cc2ccccc2)C(=O)/C1=C\C=C\c1ccco1`: the half-maximal activity concentration (AC50) under setting [1] was 35.5 µM [rising, single point] and the AC50 under setting [2] was 17.8 µM [falling, partial curve, poor fit].
With `CC(Cc1cccs1)NCc1ccc(Cl)cc1` (stereo unspecified), the AC50 under setting [1] was 10 µM [rising, partial curve, poor fit].
As for `CC12CN3CN(C1)CC(c1ccccc1)(C3)C2=O`, the AC50 under setting [1] was 2.91 µM [rising, single point].
The same measure, in the same setting: in the case of `Cc1ccc(N2CCN(CCc3ccccc3)CC2)cc1` it was 15.8 µM [rising, partial curve, poor fit]; in that of `CCOc1ccc(NC(=O)Cn2c(=O)oc3ccccc32)cc1`, 18.4 µM [falling, single point].
As for `Clc1ccc(C[n+]2c(-c3ccccc3)cc(-c3ccccc3)cc2-c2ccccc2)cc1`, the AC50 reads like this: under setting [1], 3.66 µM [falling, full curve, poor fit]; under setting [2], 16.4 µM [rising, partial curve, poor fit].
On to `COc1ccc(-n2c(C)nc3c(cnn3-c3ccc(C)c(C)c3)c2=O)cc1`, for which, under setting [1], the AC50 was 11.2 µM [rising, partial curve, poor fit].
On the same count and under the same terms, in the case of `O=C(COc1ccccc1)c1cn(Cc2ccccc2)c2ccccc12` it was 0.259 µM [falling, full curve].
As for `CC1(O)CCN2C(=O)CCc3cccc1c32` (stereo unspecified), the AC50 under setting [1] is 16.4 µM [falling, partial curve, poor fit].
Regarding `COC(=O)C1=C(c2ccc(OCc3ccccc3)cc2)C[C@@H]2CC[C@H]1N2C(=O)NCc1cccc(C(F)(F)F)c1`, the AC50 under setting [1] was 6.51 µM [falling, partial curve].
On the same count and under the same terms, for `COc1cc(C=C2C(=O)NC(=O)NC2=O)ccc1O` the value was 10 µM [rising, partial curve, poor fit]; for `NC(N)=N/N=C/c1cn(-c2ccccc2)nc1-c1cccs1`, 11.2 µM [falling, partial curve, poor fit].
Consider `Cc1ccc(/C=C/C(O)=C2/C(=O)N(C)C3(C)CC2c2ccccc2O3)cc1` (stereo unspecified), for which the AC50 under setting [1] was 14.1 µM [falling, single point].
Same read-out and setting: in the case of `O=S(=O)(Cc1ccccc1)Nc1ccc(Br)cn1` it was 22.4 µM [rising, single point]; in that of `COc1ccc(C(=O)Nc2ccc(C)c(S(=O)(=O)N3CCCCCC3)c2)cc1`, 20 µM [falling, partial curve, poor fit]; in that of `Cc1c(C(=O)c2ccccc2)c2ccccc2n1C`, 0.0891 µM [rising, full curve, poor fit].
Regarding `COC(=NC1CCCCC1)C(O)c1c[nH]c2ccccc12` (stereo unspecified), the AC50 under setting [1] was 1.64 µM [falling, full curve].
As for `COc1ccc(-c2nn(CCC#N)cc2C(=O)Nc2ccc(C(C)=O)cc2)cc1[N+](=O)[O-]`, the concentration at half-maximal activity (AC50) is, setting by setting: under setting [1], 7.08 µM [rising, partial curve]; under setting [2], 11.2 µM [falling, partial curve].
Take `N#CC(C#N)=NNc1ccc(-n2ccc(C(F)(F)F)n2)cc1`: the AC50 under setting [1] is 2.82 µM [falling, full curve].
Same read-out and setting: in the case of `Cc1ccc(C(=O)c2cc(Br)ccc2N)cc1` it was 10 µM [rising, partial curve]; in that of `O=C(NCCc1c[nH]c2ccccc12)c1cc2ccccc2oc1=O`, 3.16 µM [falling, full curve].
Same read-out and setting: for `CCOC(=O)CCP(=O)(O)C(O)c1ccccc1` (stereo unspecified) the value was 6.51 µM [falling, single point]; for `CCOc1ccc(Nc2nc(NCC3CCCO3)c3ccccc3n2)cc1` (stereo unspecified), 11.2 µM [falling, partial curve, poor fit].
The same measure, in the same setting: for `COCCOC(=O)c1c(N)n(Cc2ccco2)c2nc3ccccc3nc12` the value was 0.251 µM [falling, full curve, poor fit]; for `CCOc1cc(-c2nc3c(C)cccn3c2NCC2CCCO2)ccc1O` (stereo unspecified), 14.1 µM [falling, single point]; for `CC(C)c1ccc(NC(=O)CSc2nnc(OC(=O)N(C)C)n2C2CC2)cc1`, 3.55 µM [falling, full curve].

The values above are taken from PubChem BioAssay AID493014 (National Center for Advancing Translational Sciences (NCATS), 2011).
